{"sequences": {"note": "Sequences of proteins named here, by UniProt entry; tags and fusion partners are left off. Residues count along the entry.", "UniProt P17302, 2-382 limits assumed": "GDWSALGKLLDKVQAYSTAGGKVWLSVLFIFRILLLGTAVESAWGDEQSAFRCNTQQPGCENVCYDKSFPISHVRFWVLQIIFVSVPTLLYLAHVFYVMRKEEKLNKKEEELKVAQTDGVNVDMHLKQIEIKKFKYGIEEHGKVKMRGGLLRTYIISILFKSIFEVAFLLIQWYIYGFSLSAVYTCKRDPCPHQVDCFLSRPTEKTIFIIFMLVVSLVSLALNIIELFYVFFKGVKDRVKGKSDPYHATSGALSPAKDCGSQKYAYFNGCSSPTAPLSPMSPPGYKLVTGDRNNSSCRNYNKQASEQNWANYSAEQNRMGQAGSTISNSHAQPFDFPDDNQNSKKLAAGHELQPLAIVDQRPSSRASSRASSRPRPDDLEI"}, "source": "patent US11466069B2", "about": "“Methods of treatment and novel constructs” (AUCKLAND UNISERVICES LIMITED, priority 2017, dated 2022)", "key": {"[1]": {"biological_target": "T1, Cx43 hemichannel (Homo sapiens, UniProt P17302)", "assay": "Hemichannel mediated EthD-1 dye uptake assay", "assay_type": "cell-based", "set-up": "endogenous in cells", "conditions": "ARPE-19 cells, low calcium solution", "method": "Peptides were applied onto cells for uptake as previously mentioned. Peptide solutions were removed from the cells exposed to 2 μM ethidium homodimer-1 (EthD-1) in either Hanks Buffered Salt Solution (137 mM NaCl, 5.4 mM KCl, 0.25 mM Na2HPO4, 0.1 g glucose, 0.44 mM KH2PO4, 1.0 mM MgSO4, 4.2 mM NaHCO3)+EGTA (5 mM) (low calcium solution) to open hemichannels or high calcium (Ca′) solution (Hanks Buffered Salt Solution+1.3 mM CaCl2)) for […] at 37° C., 5% CO2. The solutions were removed, cells were washed in PBS and fixed in 4% formaldehyde PBS before counterstaining nuclei with DAPI. Coverslips were mounted in anti-fade medium (Citifluor™ AF1) and slides were imaged."}, "[2]": {"system": "hyperglycaemic and inflamed ARPE-19 cells", "assay": "Cellular uptake in hyperglycaemic and inflamed ARPE-19 cells", "assay_type": "cell-based, human", "conditions": "ARPE-19, FITC labelled peptide, 24 h", "method": "The inflammatory cytokines TNFα and Il-1β (PeproTech) were added to achieve a final concentration of 10 ng/ml each. Antibiotic-Antimycotic was added to the solution to achieve a 1% concentration. The solution was made fresh before application to cells.\n(§1) Peptides or control channel blockers, carbenoxolone (CBX) (Sigma) or lanthanum chloride (LaCl3; Sigma) were mixed with DMEM/F12 or EGM-2™ BulletKit™ media at appropriate concentrations and applied onto cells for 1 h at 37° C., 5% CO2. For cell uptake under hypoxic conditions, peptides were delivered in hypoxic, acidic ion-shifted Ringers (HAIR) solution (13) for 1 h at 37° C., 5% CO2. For cell uptake under hyperglycaemia and inflammation conditions peptides were delivered in hyperglycaemia and inflammation solution for 24 h at 37° C., 5% CO2. The solutions were removed and cells were washed in PBS and fixed in 4% formaldehyde PBS with nuclei were counterstained with DAPI. Coverslips were mounted in anti-fade medium (Citifluor™ AF1) and cells were visualised by confocal microscopy."}, "[3]": {"system": "hypoxic ARPE-19 cells", "assay": "Cellular uptake in hypoxic ARPE-19 cells (HAIR solution)", "assay_type": "cell-based, human", "conditions": "ARPE-19, FITC labelled peptide, HAIR solution 1 h", "method": "as §1"}, "[4]": {"biological_target": "T1, Cx43 hemichannel", "assay": "Hemichannel mediated ATP release assay in HAIR solution (hypoxia)", "assay_type": "cell-based", "set-up": "Hemichannel function was assessed via ATP release assay in ARPE-19 cells; endogenous in cells", "conditions": "ARPE-19, 5, 10 or 20 μM XG19"}, "[5]": {"system": "ARPE-19 cells", "assay": "Cellular uptake of FITC labelled peptides into ARPE-19 cells in normal medium", "assay_type": "cell-based, human", "method": "Cell culture and maintenance Unless otherwise mentioned, all cell culture reagents were purchased from Gibco® or Invitrogen™ (Life Technologies). ARPE-19 cells are from a human retinal pigment epithelium cell line purchased from American Type Culture Collection (ATCC), and were maintained in T25 flasks in DMEM/F12 (DMEM/F-12, GlutaMAX™ medium containing 10% heat inactivated foetal bovine serum (FBS), and 1% Antibiotic-Antimicotic (Sigma)) at 37° C. with 5% CO2.\nas §1"}, "[6]": {"system": "hypoxic ARPE-19 cells", "assay": "MTT cell viability during hypoxia (HAIR solution)", "assay_type": "cell-based, human", "conditions": "ARPE-19, 5 or 20 μM XG19"}, "[7]": {"system": "hRMEC cells", "assay": "Cellular uptake of FITC labelled peptides into hRMEC cells (confocal microscopy)", "assay_type": "cell-based, human", "method": "Primary human retinal microvascular endothelial cells (hRMEC; Neuromics) were cultured and maintained in T25 flasks in EGM-2™ BulletKit™ media (Lonza) containing endothelial basal media (EBM-2; Lonza) and EGM-2 SingleQuots™ (Lonza), supplemented with 10% fetal bovine serum and 1% Antibiotic-Antimicotic (Sigma) at 37° C. with 5% CO2. VEGF was excluded from the EGM-2 media.\nas §1"}, "[8]": {"system": "Laser induced choroidal neovascularisation (CNV) mouse model", "assay": "Laser induced choroidal neovascularisation (CNV) mouse model", "assay_type": "in vivo"}, "[9]": {"biological_target": "T1, Cx43 hemichannel", "assay": "Hemichannel mediated ATP release assay (low calcium solution)", "assay_type": "cell-based", "set-up": "endogenous in cells", "method": "Peptides were applied onto cells for uptake studies as previously described. Peptide solutions were removed from the cells, which were then exposed to either low calcium (Ca^2+) solution or HAIR solution to open hemichannels or high calcium solution to close hemichannels for […] at 37° C., 5% CO2."}, "[10]": {"system": "gap junctions", "assay": "Lucifer Yellow dye scrape/load gap junction assay", "assay_type": "cell-based, human", "conditions": "ARPE-19, scrape/load; XG19 5 μM", "method": "Peptides were applied onto cells for uptake as previously mentioned. Peptide solutions were removed from the cells and the cells were exposed to 0.1% […]/PBS dye (LY). A vertical and horizontal scrape was created in the cell monolayer using a pipette tip. The cells were then incubated at room temperature for 15 min. The LY dye solution was removed, cells were washed in PBS and fixed in 4% formaldehyde PBS with nuclei counterstained with DAPI. Coverslips were mounted in anti-fade medium (Citifluor™ AF1) and slides were imaged."}}, "note": "“Also recorded” adds a separate entry of the source. Not every detail of the peptide structures is certain; ends, links or a residue may be inferred. Non-standard residues stand in square brackets, D forms with d. Residues, ends and D or L forms follow the SMILES beside them."}
{"smiles": "CC[C@H](C)[C@H](NC(=O)[C@H](CCC(=O)O)NC(=O)[C@@H](NC(=O)[C@H](CCC(N)=O)NC(=O)[C@H](CCCCN)NC(=O)CNC(=O)CNC(=O)[C@H](NC(=O)[C@H]1CCCN1C(=O)[C@@H](CCCNC(=N)N)NC(=O)[C@@H](CC(C)C)NC(=O)[C@@H](CS)NC(=O)[C@H](N)CC(C)C)C(C)C)[C@@H](C)CC)C(=O)N[C@@H](CCCCN)C(=O)N[C@@H](CCCCN)C(=O)N[C@@H](Cc1ccccc1)C(=O)N[C@@H](CCCCN)C(=O)O", "note": "[XG19] (H-[dL][dC][dL][dR][dP][dV]GGKQIEIKKFK-OH)", "values": [{"measurement": "EthD-1 dye uptake (mean fluorescence intensity) compared to low calcium treatment", "setting": "[1]; 5 μM peptide", "value": "significant reduction of the mean fluorescence intensity; also recorded: reduced EthD-1 uptake"}, {"measurement": "concentration efficacious in EthD-1 uptake assay", "setting": "[1]", "value": "≤ 5", "unit": "µM"}, {"measurement": "cellular uptake in hyperglycaemia and inflammation solution vs normal media", "setting": "[2]", "value": "greater than in normal media; also recorded: increased in hyperglycaemic and inflamed cells"}, {"measurement": "cellular uptake in hypoxic solution vs normal media", "setting": "[3]", "value": "greater than in normal media; also recorded: increased significantly in hypoxic cells"}, {"measurement": "ATP release compared to untreated cells in HAIR solution", "setting": "[4]", "value": "significant reduction in ATP release; also recorded: significantly less ATP release"}, {"measurement": "cellular uptake (FITC fluorescence), dependence on concentration", "setting": "[5]; ARPE-19 cells, 10, 20, 50 μM", "value": "dose dependant manner"}, {"measurement": "subcellular localisation of peptide after uptake", "setting": "[5]; ARPE-19 cells, FITC vs DAPI", "value": "only visualised in the cytoplasm"}, {"measurement": "concentration at which cellular uptake was detected (FITC fluorescence)", "setting": "[5]; ARPE-19 cells, normal medium, FITC labelled peptide, 1 h, 10-50 μM (Gap19 up to 100 μM)", "value": "≤ 10", "unit": "µM"}, {"measurement": "cell viability (MTT) in HAIR solution compared to untreated cells in normal media", "setting": "[6]", "value": "no significant difference; also recorded: not significantly different"}, {"measurement": "cellular uptake (FITC fluorescence), dependence on concentration", "setting": "[7]; hRMEC cells, 10, 20, 50 μM", "value": "dose dependant manner"}, {"measurement": "concentration at which cellular uptake was detected (FITC fluorescence)", "setting": "[7]; hRMEC cells, FITC labelled peptide, 1 h, XG19 10, 20, 50 μM, Gap19 10, 20, 50, 100 μM", "value": "≤ 10", "unit": "µM"}, {"measurement": "CNV lesion ellipsoid volume Day 7, low dose vs high dose", "setting": "[8]; 25 μM vs 250 μM i.p.", "value": "no significant difference"}, {"measurement": "lesion area (fundus) on Day 1 vs saline", "setting": "[8]; C57BL/6 mice, i.p., low dose 25 μM and high dose 250 μM", "value": "no observed differences in lesion area"}, {"measurement": "lesion area (fundus) on Day 7 compared to Day 1", "setting": "[8]; both XG19 groups (25 μM, 250 μM i.p.)", "value": "smaller on Day 7 compared to Day 1"}, {"measurement": "Syndecan-4 and GFAP expression in retina (inflammation and ischaemia) vs saline", "setting": "[8]; day 8 ocular tissue, low and high dose", "value": "reduced inflammation and ischaemia; also recorded: reduction of Syndecan-4 and GFAP expression"}, {"measurement": "lesion area (fundus) on Day 7, high dose vs other groups", "setting": "[8]; high dose 250 μM i.p.", "value": "smallest lesion area measurements; also recorded: smallest lesion areas"}, {"measurement": "CNV lesion ellipsoid volume (OCT) Day 7 vs saline, high dose", "setting": "[8]; high dose 250 μM i.p., n=7 eyes", "value": "significantly smaller volume measurements; also recorded: significantly smaller ellipsoid volumes"}, {"measurement": "CNV lesion ellipsoid volume (OCT) Day 7 vs saline, low dose", "setting": "[8]; low dose 25 μM i.p., n=8 eyes", "value": "significantly smaller volume measurements; also recorded: significantly smaller ellipsoid volumes"}, {"measurement": "concentration relative to PepS giving similar effect on ATP release", "setting": "[9]; 5 μM XG19 vs 100 μM Peptide5", "value": 20, "unit": "times less"}, {"measurement": "reduction of ATP release compared with Peptide5", "setting": "[9]; 5 μM XG19 vs 100 μM Peptide5, low calcium", "value": "as effective at reducing ATP release as much higher concentrations of the extracellular acting PepS"}, {"measurement": "stability/function inside cells post uptake", "setting": "[9]; ARPE-19, inferred from ATP release block 24 h post uptake", "value": "stable inside cells for up to 24 h"}, {"measurement": "ATP release relative to CBX treated group", "setting": "[9]; ARPE-19, low calcium solution", "value": "greater than CBX"}, {"measurement": "ATP release compared to the low calcium control, 25 min", "setting": "[9]; ARPE-19, 5 μM XG19, 100 μM Peptide5, 100 μM CBX applied 1 h, 25 min low calcium", "value": "reduce ATP release, but not significantly"}, {"measurement": "ATP release compared to low calcium, 30 min", "setting": "[9]; ARPE-19, 5 μM XG19, 100 μM Peptide5, 100 μM CBX, 30 min low calcium", "value": "reduced ATP release"}, {"measurement": "ATP release compared to untreated cells, 1 h and 24 h post uptake", "setting": "[9]; ARPE-19, 5, 10 or 20 μM, 1 h and 24 h post cellular uptake", "value": "significant reduction in ATP release; also recorded: significantly less ATP release"}, {"measurement": "gap junction function (Lucifer Yellow dye spread to neighbouring cells)", "setting": "[10]", "value": "maintains gap junction function; also recorded: no effect on gap junction coupling"}]}
